Results: publication PMC13378946
No constants are given. Whether binding was seen depends on the method and setting. In cells and extracts the contact can be indirect. Some entries that bind do so weakly or less than the wild type.

Protein sequences, listed by entry. Tags and fused reporters are not part of them. Residues count along the entry.
UniProt Q49AH0, residues 25-187: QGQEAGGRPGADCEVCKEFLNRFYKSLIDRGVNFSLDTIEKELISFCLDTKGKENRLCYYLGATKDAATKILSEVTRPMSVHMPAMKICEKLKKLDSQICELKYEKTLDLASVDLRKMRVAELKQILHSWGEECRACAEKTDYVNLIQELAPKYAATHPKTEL
UniProt Q91Y86: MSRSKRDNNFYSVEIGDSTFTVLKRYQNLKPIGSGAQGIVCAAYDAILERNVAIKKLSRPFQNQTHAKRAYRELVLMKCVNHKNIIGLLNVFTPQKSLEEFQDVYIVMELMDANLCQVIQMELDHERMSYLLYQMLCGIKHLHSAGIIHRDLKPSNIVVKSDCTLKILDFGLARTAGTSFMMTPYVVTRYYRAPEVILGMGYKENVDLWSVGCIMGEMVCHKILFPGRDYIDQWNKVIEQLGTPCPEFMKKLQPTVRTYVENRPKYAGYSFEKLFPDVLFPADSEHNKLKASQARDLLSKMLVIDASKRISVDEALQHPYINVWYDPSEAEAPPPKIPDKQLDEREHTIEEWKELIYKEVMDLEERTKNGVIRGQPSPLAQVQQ

Assays:
[1] = biological target: T1, Cerebral dopamine neurotrophic factor (endogenous) (mouse (endogenous in primary microglia)) (UniProt Q8CC36); experiment: co-IP; lysate of primary mouse microglia (blank control or LPS 1 ug/mL); precleared with IgG and A/G agarose beads; CDNF primary antibody with A/G agarose beads, 12 hours at 4°C; immunoblot with JNK1 and JNK2 antibodies
T1 sequence: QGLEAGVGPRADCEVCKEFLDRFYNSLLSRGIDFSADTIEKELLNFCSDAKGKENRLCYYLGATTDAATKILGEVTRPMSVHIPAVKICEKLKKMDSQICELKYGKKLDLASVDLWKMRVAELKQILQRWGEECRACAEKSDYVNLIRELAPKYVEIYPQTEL

[2] = biological target: Cerebral dopamine neurotrophic factor (exogenous, Peprotech) (UniProt Q49AH0); experiment: co-IP; primary mouse microglia pretreated with exogenous CDNF (200 ng/mL, 1 hour), then LPS for 24 hours; lysate precipitated with CDNF primary antibody and A/G agarose beads, 12 hours at 4°C; immunoblot with JNK1 and JNK2 antibodies; only the target purified

Row | binding [1] | binding [2] | Substance
1 | binds | binds | c-Jun N-terminal kinase 1 (from UniProt Q91Y86 1-384) (enzyme)
2 | no binding | no binding | c-Jun N-terminal kinase 2 (from UniProt Q9WTU6 1-423) (enzyme)
